Record: PubChem BioAssay AID1259425 (University of Nebraska Medical Center, 2018)

- Purpose: 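Find knockdowns that reproduce the gene expression pattern seen when KSR1 is lost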 (primary screen)
- System: HCT116 human colon cancer cells
- Knock-down reagent: siRNA pool against human genes, 50 nM siRNA
- Measured: 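mRNA of six signature genes measured together by branched-DNA assay after 50 nM siRNA pool, blank removed, divided by geometric mean of two housekeeping genes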
- Direction: BNIP3L mRNA: higher = more BNIP3L transcript after knockdown; NDRG1 mRNA: higher = more NDRG1 transcript after knockdown
Shown is an unselected part of about 14,000 deposited reagents. Not all columns of the deposit are shown. Not stated in the record: the time to read-out.

| BNIP3L mRNA, set 1 | NDRG1 mRNA, set 1 | target gene |
| --- | --- | --- |
| 0.098 | 0.369 | TAF1D |
| 0.0669 | 0.108 | EPO |
| 0.113 | 0.141 | MIER3 |
| 0.0893 | 0.0801 | CD209 |
| 0.121 | 0.134 | GMIP |
| 0.1 | 0.462 | CDKAL1 |
| 0.0643 | 0.0999 | TAF1A |
| 0.117 | 0.134 | NPPB |
| 0.442 | 0.468 | RPL13 |
| 0.224 | 0.387 | TNIP2 |
| 0.0948 | 0.0902 | NME3 |
| 0.0328 | 0.0684 | VPS26A |
| 0.0923 | 0.119 | APOA1 |
| 0.14 | 0.602 | GARRE1 |
| 0.175 | 0.194 | ZNF266 |
| 0.123 | 0.452 | MT-ND3 |
| 0.093 | 0.799 | DCXR |
| 0.05 | 0.247 | PANX1 |
| 0.0816 | 0.0602 | C8G |
| 0.15 | 0.142 | FNDC3A |

An excerpt from above, showing only “BNIP3L mRNA, set 1”.
TNIP2	0.224
NME3	0.0948
